Drawing on PubChem BioAssay AID1487 (National Center for Advancing Translational Sciences (NCATS), 2009), this text covers AC50 for 54 compounds.

Some of the results follow. These are further read-outs of the screen, such as a control signal, another cell line or another target. No call is given for them. The list favours compounds with an active or inconclusive main result. The note in brackets gives the kind of curve behind each potency; many fits are weak.

The nature of the experiment: qHTS Assay for Modulators of Lamin A Splicing. Conditions: HeLa LMNA splicing GFP/RFP minigene ratio, 48 h. Put shortly:
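S3 HeLa cells stably expressing lamin A-EGFP splicing minigene plus DsRed2, 600 cells/well, 48 h compound exposure at 37C. Laser-scanning cytometry; analysed as GFP (500-530 nm)/RFP (575-640 nm) total intensity ratio; 0.5% DMSO vehicle.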
On the technique in general: Quantitative high-throughput screening tests each substance at several concentrations.

Where [1] appears, read: measured here: RFP viability control channel.
Where [2] appears, read: measured here: GFP splicing reporter channel.

Usually AC50 stands for the concentration at which the activity in the assay is half-maximal. On to `CCOC(=O)c1cccc(NC(=O)CN2C(=O)C3C4C=CC(C4)C3C2=O)c1` (stereo not given), for which, under setting [1], the AC50 is 0.316 µM [rising, partial curve, poor fit].

Consider `Cc1ccccc1/C=C/c1nc2ccccc2c(=O)n1CCc1ccccc1`, for which, under setting [1], the AC50 is 14.1 µM [rising, partial curve]. As to `CCOC(=O)c1nnn(CC(=O)NC(=O)Nc2ccccc2)c1C(=O)OCC`, the AC50 under setting [1] was 35.5 µM [falling, single point]. Regarding `COc1cccc(-n2c(SCC(=O)N3CCc4ccccc43)nc3c([nH]c4ccccc43)c2=O)c1`, the half-maximal activity concentration (AC50) by setting is: under setting [2], 0.0224 µM [falling, full curve, poor fit]; under setting [1], 0.0224 µM [falling, full curve, poor fit]. As to `CC(C)(C)c1cc(NC(=O)CSc2nnc(N)s2)n(-c2ccccc2)n1`, the AC50 under setting [1] is 20 µM [rising, partial curve, poor fit].

In the case of `Cc1cc(C)c(O)c(-c2cc(C(=O)NCc3ccccc3)[nH]n2)c1`, the half-maximal activity concentration (AC50) runs as follows: under setting [2], 11.2 µM [rising, single point]; under setting [1], 12.6 µM [rising, single point]. As to `O=C(Nc1ccc(S(=O)(=O)Nc2nccs2)cc1)c1ccc(N2C(=O)c3ccccc3C2=O)cc1`, the concentration at half-maximal activity (AC50) by setting is: under setting [2], 2 µM [falling, partial curve, poor fit]; under setting [1], 0.00891 µM [falling, full curve, poor fit]. As for `C=C(C)C1CC=C(C)/C(=N\NC(=S)Nc2ccc(C)cc2)C1` (stereo not given), the AC50 was 10 µM [rising, partial curve, poor fit] under setting [2] and 35.5 µM [rising, single point] under setting [1]. On to `Cn1cnnc1SCC(=O)c1cc2ccccc2o1`, for which the AC50 under setting [1] is 11.2 µM [rising, single point].

In the case of `CN(C)c1ccc(NC(=O)Nc2cccc(Cl)c2)cc1`, under setting [1], the half-maximal activity concentration (AC50) is 6.31 µM [rising, partial curve, poor fit]. On to `Cn1cnc2c(NCc3ccccc3)nc(NCCO)nc21`, for which, under setting [2], the half-maximal activity concentration (AC50) was 0.00501 µM [falling, full curve, poor fit]. As to `COc1ccc(-n2c(=O)[nH]c3c(C(N)=O)nc(C4CCCCC4)nc32)cc1`, the AC50 under setting [1] was 5.01 µM [rising, single point]. Regarding `COc1ccc(S(=O)(=O)NCc2cccn2Cc2cccc(C)c2)cc1Cl`, the concentration at half-maximal activity (AC50) under setting [2] is 35.5 µM [falling, single point] and the concentration at half-maximal activity (AC50) under setting [1] was 12.6 µM [falling, single point]. `Cc1c(CCOC(=O)CC23CC4CC(CC(C4)C2)C3)sc[n+]1CC(=O)c1ccc(Br)cc1`: the half-maximal activity concentration (AC50) under setting [1] was 20 µM [rising, single point].

Turning to `COC(=O)c1ccc(COc2ccccc2/C=C(\C#N)C(=O)Nc2c(C)cccc2C)cc1`, the AC50 under setting [2] was 8.91 µM [rising, partial curve] and the concentration at half-maximal activity (AC50) under setting [1] was 12.6 µM [rising, partial curve].

Take `Cc1ccc(NC(=O)Cn2c(=O)cnc3ccccc32)cc1S(=O)(=O)N(C)C`: the concentration at half-maximal activity (AC50) under setting [1] is 35.5 µM [rising, partial curve].

Regarding `NC(N)=NC(N)=Nc1ccc(SC(F)(F)F)cc1`, the AC50 runs as follows: under setting [2], 12.6 µM [rising, single point]; under setting [1], 12.6 µM [rising, partial curve]. For the compound `CCc1nnc(NC(=O)c2ccc(S(=O)(=O)N3CCCc4ccccc43)cc2)o1`, the AC50 under setting [1] was 10 µM [rising, partial curve]. In the case of `Cc1ccccc1CN1CCc2nc(N3CCN(c4ncccn4)CC3)ncc2C1`, the AC50 under setting [2] is 25.1 µM [falling, partial curve] and the half-maximal activity concentration (AC50) under setting [1] is 31.6 µM [falling, partial curve].

Consider `COC(=O)c1c[nH]n2c(=O)c(Cc3ccc(F)cc3Cl)c(C)nc12`, for which the AC50 under setting [1] is 14.1 µM [rising, single point]. Consider `CCCCn1c(O)c(/C=C2\C=NN=C2c2ccccc2)sc1=S`, for which the AC50 under setting [1] was 5.62 µM [rising, partial curve]. Take `CCSc1nc2c(cnn2-c2ccc(C)cc2)c(=O)[nH]1`: the AC50 under setting [1] is 12.6 µM [rising, single point]. Regarding `Cc1cccc(N2CCN(S(=O)(=O)c3cn(C)c(C)n3)CC2)c1C`, under setting [2], the concentration at half-maximal activity (AC50) was 22.4 µM [falling, partial curve, poor fit].

Take `Cc1cc(CNC(=O)c2ccc(C)c([N+](=O)[O-])c2)c2ccccc2n1`: the AC50 under setting [2] is 0.447 µM [falling, full curve, poor fit]. Turning to `Cc1ccc(SCCNC(=S)Nc2ccccc2)cc1`, the AC50 was 12.6 µM [rising, partial curve] under setting [2] and 35.5 µM [rising, single point] under setting [1]. In the case of `Cc1ccc(-n2nc(C(=O)N3CCN(c4ccc(F)cc4)CC3)c(=O)n(C)c2=O)cc1`, the AC50 under setting [2] is 7.94 µM [rising, partial curve, poor fit]. `CC1(C)CC2CC(C)(CN2S(=O)(=O)c2ccc(C(=O)Nc3cc(S(=O)(=O)N4CCOCC4)ccc3Cl)cc2)C1` (stereo not given): the AC50 under setting [2] was 5.62 µM [rising, partial curve] and the AC50 under setting [1] is 12.6 µM [rising, partial curve]. Regarding `O=C(CCNc1ccc(Cl)cc1)c1cccs1`, the AC50 under setting [1] was 12.6 µM [rising, partial curve].

In the case of `COc1ccc(OC2C(=O)N(c3cc(C)ccc3C)C2c2ccc(OC)c(OC)c2)cc1` (stereo not given), the AC50 under setting [1] was 35.5 µM [rising, single point]. On to `OC(COc1cccc2ccccc12)CN1CCN(c2ccccn2)CC1` (stereo not given), for which the concentration at half-maximal activity (AC50) under setting [2] was 15.8 µM [rising, partial curve] and the half-maximal activity concentration (AC50) under setting [1] is 12.6 µM [rising, partial curve]. Turning to `COC(=O)Nc1snnc1C`, the AC50 under setting [1] is 11.2 µM [falling, partial curve].

For the compound `COc1ccc(/C=N/NC(=O)Cc2csc(Nc3cccc(C(F)(F)F)c3)n2)cc1C`, the AC50 is 35.5 µM [falling, single point] under setting [2] and 25.1 µM [falling, partial curve] under setting [1]. On to `CC(C(=O)Nc1ccc(Cl)cc1)c1ncc(C(F)(F)F)cc1Cl` (stereo not given), for which the AC50 under setting [1] was 12.6 µM [rising, single point]. On to `COc1ccc(S(=O)(=O)N(CC(=O)Nc2ccc(F)c(Cl)c2)c2ccc(C)cc2)cc1OC`, for which the concentration at half-maximal activity (AC50) under setting [2] is 3.98 µM [rising, full curve, poor fit]. On to `CCCCCCn1c2c(c(=N)c3c1CCC3)CCC2`, for which the AC50 under setting [1] is 11.2 µM [rising, partial curve, poor fit]. For the compound `O=C(COc1ccc(Cl)cc1Cl)NCCC1=CCCCC1`, the half-maximal activity concentration (AC50) under setting [2] is 11.2 µM [rising, partial curve, poor fit] and the AC50 under setting [1] is 14.1 µM [rising, partial curve].

With `CCN(CC(O)Cn1c2ccccc2c2ccccc21)S(=O)(=O)c1ccc(F)cc1` (stereo not given), under setting [1], the AC50 is 35.5 µM [rising, single point]. As to `COc1ccc(OC)c(/C=C/C(=O)N2C(=O)c3cccc(N)c3C2=O)c1`, the AC50 was 12.6 µM [rising, single point] under setting [2] and 25.1 µM [rising, single point] under setting [1]. Consider `Cc1ccc2c(c1)[nH]c1c(N3CCN(Cc4ccc5c(c4)OCO5)CC3)ncnc12`, for which the AC50 under setting [1] is 2.82 µM [rising, partial curve]. Consider `COC(=O)N/N=C/c1c(C)c(C(=O)c2ccc(F)cc2)n2ccccc12`, for which the concentration at half-maximal activity (AC50) under setting [1] was 7.94 µM [rising, single point]. Regarding `CC(C)(C)c1ccc(C(=O)N2CCN(CCNC(=O)C(=O)NCc3ccccc3)CC2)cc1`, the AC50 is 17.8 µM [rising, single point] under setting [2] and 25.1 µM [rising, single point] under setting [1].

As to `COc1cccc2c1C(=O)c1c(O)c3c(c(O)c1C2=O)C[C@@](O)(C(=O)CO)C[C@@H]3O[C@H]1C[C@H](N)[C@H](O)[C@H](C)O1`, the concentration at half-maximal activity (AC50) under setting [2] was 6.31 µM [falling, full curve].

On to `O=C(Nc1cccc(Cn2cccn2)c1)c1cc2c(s1)CCCC2`, for which, under setting [1], the AC50 is 15.8 µM [rising, partial curve].

On to `O=C(c1cnn2c1NC(c1ccco1)CC2C(F)(F)F)N1CCN(c2cccc(Cl)c2)CC1` (stereo not given), for which the half-maximal activity concentration (AC50) under setting [2] is 35.5 µM [falling, single point]. As to `O=C(Nc1ccc(OC(F)(F)F)cc1)C1CCN(S(=O)(=O)c2ccc3[nH]c(=O)ccc3c2)CC1`, the AC50 under setting [2] was 0.0224 µM [falling, full curve, poor fit]. In the case of `CN(C)S(=O)(=O)Oc1cccc(C(=O)Nc2ccc(Cl)c(Cl)c2)c1`, the AC50 is, setting by setting: under setting [2], 11.2 µM [falling, partial curve, poor fit]; under setting [1], 25.1 µM [falling, partial curve]. Turning to `Cn1ncc(C#N)c1NC(=O)C1CC(c2c(F)cccc2Cl)=NO1` (stereo not given), the half-maximal activity concentration (AC50) under setting [1] was 0.112 µM [rising, full curve, poor fit]. With `O=C(c1cc2nc(-c3ccco3)cc(C(F)(F)F)n2n1)N1CCN(Cc2ccccc2)CC1`, the half-maximal activity concentration (AC50) under setting [2] was 25.1 µM [falling, partial curve, poor fit] and the concentration at half-maximal activity (AC50) under setting [1] was 0.126 µM [falling, full curve, poor fit]. Regarding `O=C(O)CSc1nnc(CNc2ccccc2Cl)n1-c1ccccc1`, the concentration at half-maximal activity (AC50) under setting [1] was 5.01 µM [falling, single point]. With `O=[N+]([O-])c1ccc(CSc2nnc(SCc3ccccc3)s2)cc1`, the concentration at half-maximal activity (AC50) under setting [2] is 14.1 µM [rising, single point] and the AC50 under setting [1] is 25.1 µM [rising, single point]. Regarding `Cc1cccc(/C=N/Nc2cc(N3CCOCC3)nc(N3CCOCC3)n2)c1`, the AC50 under setting [2] was 35.5 µM [falling, single point] and the AC50 under setting [1] was 35.5 µM [falling, single point]. `CC1(CCc2ccccc2)NC(=S)N(c2ccc(Cl)cc2)N1` (stereo not given): the AC50 under setting [2] is 10 µM [rising, partial curve, poor fit].

In the case of `O=c1c2ccccc2nc(/C=C/c2ccc(O)cc2)n1CCc1ccccc1`, the concentration at half-maximal activity (AC50) by setting is: under setting [2], 7.08 µM [rising, partial curve]; under setting [1], 14.1 µM [rising, partial curve].

For the compound `O=C(/C=C/c1ccc2c(c1)OCO2)Nc1nc(-c2ccc(F)cc2)cs1`, the half-maximal activity concentration (AC50) by setting is: under setting [2], 1.78 µM [falling, full curve, poor fit]; under setting [1], 2 µM [falling, single point].
